In PubChem BioAssay AID2685 (National Center for Advancing Translational Sciences (NCATS), 2010):
About 2,100 (0.66%) of roughly 320,000 compounds were called active. Inconclusive results, whose numbers are uncertain, are shown with a selection of clear calls. Calls come from the whole dose curve; as a rule, active = well fitted inhibition curve with a large enough effect in the signal ratio, with a control signal flat (not every such curve was filed as active); inconclusive = small, poorly fitted or top-dose-only effect, or effect the other way, or a change in a side signal; inactive = flat fitted curve, though single readings scatter; the % refers to the signal ratio. A potency beside an inconclusive call is a rough fit, not a confirmed value.

Assay: qHTS Assay for Lipid Storage Modulators in Drosophila S3 Cells
Details: BODIPY lipid droplet fluorescence, 18-24 h, cells fed with added oleic acid; lipid storage change, negative = inhibition: at 46.1 µM (top of the series) unless noted
In short: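 Drosophila S3 cells got compounds at several concentrations plus oleic acid (400 uM solution). Laser-scanning cytometry with 488 nm excitation read lipid droplets at 500-530 nm and cells at 575-640 nm. Percent activity was relative to 20 uM Triacsin C.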
% is set by controls: 0 for no effect and ±100 for the full control effect; potency is the fitted concentration of half-maximal effect.

Row | Structure (SMILES) | lipid storage change, negative = inhibition | Potency | outcome
1 | C#CC[N+](C)(C)CCN1C(=O)C2C(c3ccccc3)C=CC(c3ccccc3)C2C1=O (stereo not given) | inconclusive: 5.48% | – | –
2 | COc1ccc(CCNC(=O)CNC(=O)c2ccco2)cc1 | inconclusive: 3.4% | – | –
3 | NC(=O)c1cc(NC(=O)c2cc(Br)c(Br)s2)cc(C(N)=O)c1 | inconclusive: 20.8% | – | –
4 | O=C(NCc1ccco1)/C(=C/c1cccc([N+](=O)[O-])c1)NC(=O)c1ccco1 | – | inconclusive: 29.1 µM [activator, single point] | –
5 | COc1ccc2cc(C(=O)C3CCCN(C(=O)c4cnn(C(C)C)c4)C3)ccc2c1 (stereo not given) | inconclusive: 11.9% | – | –
6 | CCOC(=O)C1(CCOC)CCN(Cc2cc3ccccc3s2)CC1 | inconclusive: 29.7% | – | –
7 | CCOc1cc(C(=O)OCC(=O)NCc2ccco2)cc(OCC)c1OCC | inconclusive: 41.8% | – | –
8 | O=Cc1cc(-c2ccccc2)[nH]c1-c1ccccc1 | inconclusive: 33% | – | –
9 | O=S(=O)(NCCc1ccccc1)c1ccc(S(=O)(=O)N2CCCCC2)cc1 | – | inconclusive: 2.31 µM [falling, partial curve, poor fit] | –
10 | CCN(CC(=O)Nc1c(F)cccc1F)C(=O)c1nc2nc(C)cc(C)n2n1 | inconclusive: -24.4% | – | –
11 | COc1ccc(CCNC(=O)COC(=O)COc2c(C)cc(C)cc2C)cc1OC | – | inconclusive: 6.51 µM [falling, single point] | –
12 | COc1cc(N=C2C(=O)N3c4c(cccc42)C(C)=CC3(C)C)cc(OC)c1 | inconclusive: -0.846% | – | –
13 | O=C(NC(=S)NC1CCCCCC1)c1cncc(Br)c1 | – | inconclusive: 16.4 µM [activator, single point] | –
14 | CC(=O)c1cccc(NC(=O)COC(=O)COc2ccc(Cl)cc2)c1 | inconclusive: 6.78% | – | –
15 | Cc1ccc(NC(=O)CSCC(=O)N2CCN(c3cccc(C(F)(F)F)c3)CC2)cc1 | inconclusive: 10.5% | – | –
16 | NNC(=O)/C=C/c1ccc(Cl)cc1Cl | – | inconclusive: 0.0046 µM [rising, full curve, poor fit] | –
17 | Cc1cc(C)n(C(=O)Cn2nc([N+](=O)[O-])cc2C)n1 | inconclusive: 10.4% | – | –
18 | O=C(c1ccc(S(=O)(=O)NCc2ccco2)cc1)N1CCN(Cc2ccccc2F)CC1 | – | – | inactive [at 46.1 µM]
19 | CC(C)(C)n1ncc2c(=O)n(CC(=O)Nc3ccccc3)cnc21 | inconclusive: 26% | – | –
20 | Cc1ccc2c(COC(=O)C34CC5CC(CC(C5)C3)C4)cc(=O)oc2c1 | – | inconclusive: 0.164 µM [activator, full curve, poor fit] | –
21 | CN(C)/C=C/C(=O)c1ccc(F)cc1 | inconclusive: -22.6% | – | –
22 | COc1cccc(OC)c1C(=O)OCC(=O)NC1CCCCCC1 | – | inconclusive: 1.46 µM [falling, partial curve] | –
23 | O=c1[nH]c2ccccc2nc1/C=C/c1ccccc1 | inconclusive: -28.3% | – | –
24 | CCC(=O)Oc1ccc(C(=O)Nc2ccc([N+](=O)[O-])cc2)cc1 | inconclusive: 4.15% | – | –
25 | COc1ccc(S(N)(=O)=O)cc1C(=O)NNC(=O)CN(C)S(=O)(=O)c1ccc(Cl)cc1 | inconclusive: -21.1% | – | –

Taken from above:
For lipid storage change, negative = inhibition, NC(=O)c1cc(NC(=O)c2cc(Br)c(Br)s2)cc(C(N)=O)c1 reads inconclusive: 20.8%
For Potency, COc1ccc(CCNC(=O)COC(=O)COc2c(C)cc(C)cc2C)cc1OC reads inconclusive: 6.51 µM [falling, single point]

(listing goes on)

Row | Structure (SMILES) | lipid storage change, negative = inhibition | Potency | outcome
26 | CCOc1cc(C(c2c(C)[nH][nH]c2=O)c2c(C)[nH][nH]c2=O)ccc1O | – | inconclusive: 11.6 µM [falling, partial curve] | –
27 | CC(C)NC(=O)CN(C(=O)CCC(=O)Nc1ccccn1)c1ccc(F)c(Cl)c1 | inconclusive: 1.83% | – | –
28 | N#Cc1ccccc1NC(=O)c1ccccc1OCC(=O)NCc1ccco1 | – | inconclusive: 0.366 µM [activator, full curve] | –
29 | Cc1ccc2nc(C)cc(C(=O)N/N=C/c3ccncc3)c2c1 | inconclusive: 1.52% | – | –
30 | O=C(CCc1ccccc1)NCc1ccc2c(c1)OCO2 | – | inconclusive: 14.6 µM [activator, partial curve] | –
31 | COc1ccc(N2CCN(C(=O)CN(C3CCCCC3)S(C)(=O)=O)CC2)cc1 | – | inconclusive: 0.461 µM [falling, full curve, poor fit] | –
32 | CCN(c1ccccc1)S(=O)(=O)c1ccc(Cl)c(NC(=O)Nc2ccc(Cl)cc2C#N)c1 | – | inconclusive: 8.2 µM [activator, partial curve] | –
33 | Cc1occc1C(=O)NC1CCCCCCC1 | inconclusive: 14.8% | – | –
34 | C=CCSc1nnc(-c2ccccc2NC(=O)CC)c(=O)[nH]1 | inconclusive: -26.8% | – | –
35 | Cc1ccc(SCc2ccc(C(=O)Nc3cccnc3)cc2)cc1 | inconclusive: 49.2% | – | –
36 | CCN(CC)C(=O)c1[nH]cnc1C(=O)N[C@H](C)c1ccccc1 | inconclusive: 0.644% | – | –
37 | Brc1ccc(-c2csc(N/N=C/c3ccco3)n2)cc1 | inconclusive: 15.3% | – | –
38 | CCC(C)C(=O)Nn1c(C2CC2)nc2cc(OC)c(OC)cc2c1=O (stereo not given) | inconclusive: 31.7% | – | –
39 | CCN1CCN(C(=O)CSc2ccc(C)cc2)CC1 | inconclusive: 291% | – | –
40 | COc1cc(C2CC(c3cccnc3)=NN2c2ccc(F)cc2)cc(OC)c1OC (stereo not given) | – | inconclusive: 29.1 µM [rising, single point] | –
41 | CC(CNC(=O)CN1C(=O)c2cccnc2Oc2ccc(Cl)cc21)c1ccccc1 (stereo not given) | – | active: 20.6 µM | –
42 | CCOc1ccc(NC(=O)CSc2nnc(-c3ccccn3)n2N)cc1 | inconclusive: 30.2% | – | –
43 | NC(=O)C1CCN(C(=O)c2ccc(-c3ccccc3Cl)o2)CC1 | inconclusive: 47.7% | – | –
44 | Cc1ccc(NC(=O)CC2NCCNC2=O)cc1 (stereo not given) | – | inconclusive: 6.51 µM [activator, single point] | –
45 | Cc1c(C)n(C)c2ccc(C(=O)NCCCN3CCOCC3)cc12 | inconclusive: -45% | – | –
46 | COc1ccc(CNc2cccc(F)c2)cc1Br | inconclusive: -7.71% | – | –
47 | CN(C)C(CNC(=O)C1CCN(S(=O)(=O)c2ccccc2C(F)(F)F)CC1)Cc1ccccc1 (stereo not given) | inconclusive: -75.5% | – | –
48 | Cc1ccc(C)c(C(=O)c2c(C)nc3sccn23)c1 | inconclusive: 36.4% | – | –
49 | CC(=O)c1cccc(OCC(=O)N2CCN(c3ccc(C(F)(F)F)cn3)CC2)c1 | inconclusive: -5.23% | – | –
50 | O=C(COC(=O)Cn1[nH]c(=O)c2ccccc2c1=O)Nc1ncc(Cl)cc1Cl | inconclusive: 68.1% | – | –

2 of the compounds above, as a markdown table:

| Row | Structure (SMILES) | lipid storage change, negative = inhibition | Potency | outcome |
| --- | --- | --- | --- | --- |
| 33 | Cc1occc1C(=O)NC1CCCCCCC1 | inconclusive: 14.8% | – | – |
| 36 | CCN(CC)C(=O)c1[nH]cnc1C(=O)N[C@H](C)c1ccccc1 | inconclusive: 0.644% | – | – |
